Test results: PubChem BioAssay AID540275 (National Center for Advancing Translational Sciences (NCATS), 2011)
About 620 (0.19%) of roughly 320,000 compounds were called active. Inconclusive results, whose numbers are uncertain, are shown with a selection of clear calls. Rule as the data show it: active = activation above about 80%; inconclusive = between about 30% and that limit; inactive = weaker than that.

The chains behind the UniProt entries cited, without tags or fusion partners.
UniProt Q8NER1, whole entry, looked up: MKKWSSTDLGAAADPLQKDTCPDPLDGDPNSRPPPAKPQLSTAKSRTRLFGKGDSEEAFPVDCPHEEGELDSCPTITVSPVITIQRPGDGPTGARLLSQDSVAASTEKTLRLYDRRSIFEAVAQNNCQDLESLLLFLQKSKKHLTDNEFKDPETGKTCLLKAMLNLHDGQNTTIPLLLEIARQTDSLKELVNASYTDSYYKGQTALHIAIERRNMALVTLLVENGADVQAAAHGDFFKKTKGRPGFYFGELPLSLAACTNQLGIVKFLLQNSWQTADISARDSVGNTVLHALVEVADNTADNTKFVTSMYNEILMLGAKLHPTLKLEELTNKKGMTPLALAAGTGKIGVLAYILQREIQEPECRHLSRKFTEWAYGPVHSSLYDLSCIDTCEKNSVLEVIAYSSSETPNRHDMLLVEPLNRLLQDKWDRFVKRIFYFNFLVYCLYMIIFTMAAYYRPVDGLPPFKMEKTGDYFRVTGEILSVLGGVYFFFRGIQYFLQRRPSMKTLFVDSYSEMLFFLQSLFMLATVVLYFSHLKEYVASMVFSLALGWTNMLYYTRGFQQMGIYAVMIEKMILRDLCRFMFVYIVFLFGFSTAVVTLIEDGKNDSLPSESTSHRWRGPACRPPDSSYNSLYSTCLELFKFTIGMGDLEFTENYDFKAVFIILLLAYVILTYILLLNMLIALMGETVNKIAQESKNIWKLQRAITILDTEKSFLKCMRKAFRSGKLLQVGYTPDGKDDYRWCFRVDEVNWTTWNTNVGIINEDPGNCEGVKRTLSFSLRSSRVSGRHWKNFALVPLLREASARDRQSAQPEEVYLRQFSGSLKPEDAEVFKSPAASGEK

Each molecule was assayed against Transient receptor potential cation channel subfamily V member 1 (Homo sapiens) (UniProt Q8NER1) (assay: HTS Assay for Compounds that Act as Agonists of the Vanilloid Receptor 1). Settings: TRPV1-expressing cells, Fluo-8 calcium influx, agonist mode; at 8.33 µM, hits give high values.
How it was run: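 Cells expressing TRPV1 were dye-loaded with Fluo-8 and read kinetically: 10 s baseline, 3 min after compound (agonist portion), then 2 min after EC20 capsaicin (allosteric enhancer portion). Calcium-bound dye fluorescence at 480/520 nm.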
Also: 0% is about no effect.

SMILES | activation
Cc1ccc2nc(SC(C)C(=O)Nc3cccc([N+](=O)[O-])c3)[nH]c2c1 (stereo unspecified) | inconclusive: 36.7%
O=C(COc1ccc(Br)cc1CO)Nc1ccc(F)cc1 | inactive: 24%
CC(C)(C)c1ccc(OCc2ccc(C(=O)NN)o2)cc1 | active: 123%
Nc1c(C(=O)NCc2ccccc2)c2nc3ccccc3nc2n1-c1ccc2c(c1)OCO2 | inactive: 5.48%
O=C(N/N=C/c1cn(-c2cccs2)nc1-c1ccccc1)c1ccccc1O | inactive: -1.45%
Cc1ccc(OCC(=O)Nc2ccc(F)cc2)cc1 | inconclusive: 54.8%
Cc1cc2oc(=O)cc(CN(C)Cc3ccccc3)c2cc1C(C)C | inconclusive: 48.4%
CCn1c(SCC(=O)Nc2ccc3[nH]c(=O)[nH]c3c2)nc2ccccc21 | inconclusive: 56.7%
CCc1cccc(C)c1NC(=O)C1CN(S(=O)(=O)c2ccccc2)CCN1S(=O)(=O)c1ccccc1 (stereo unspecified) | inactive: -0.851%
O=C(CN1CCN(c2ccc(O)cc2)CC1)Nc1ccc2c(c1)OCCCO2 | inactive: -2.29%
CCCCCCn1c(NCC)nc2c1c(=O)n(C)c(=O)n2C | inactive: -1.47%
Cc1ccc(NC(=O)C2C(c3ccccc3)C2(Cl)Cl)c(C)c1 (stereo unspecified) | inconclusive: 50.3%
COc1ccc(CNC(=O)CN(Cc2ccc(C)cc2)S(=O)(=O)c2ccc(Cl)cc2)cc1 | inconclusive: 40.7%
Cc1ccc(-n2c(C)n[nH]c2=S)cc1C | inactive: -4.65%
CCN(Cc1ccccc1)S(=O)(=O)c1ccc(C(=O)N(CCCN(C)C)c2nc3c(C)c(C)ccc3s2)cc1 | inactive: 1.77%
O=C(Nc1ccc(Cl)c(Cl)c1)N1CCSC1c1ccco1 (stereo unspecified) | inconclusive: 32.3%
N#Cc1cc2ccccc2nc1SCc1ccccn1 | inactive: 3.95%
O=C(NCCCCNC(=O)c1ccc(F)cc1)c1ccc(F)cc1 | inactive: -0.463%
CCN1C(=O)c2cccc3c(N)ccc(c23)C1=O | active: 198%
Cc1c(/C=N\NC(=O)C2COc3ccccc3O2)c2ccccc2n1C (stereo unspecified) | inactive: -2.48%
CCc1ccc(OCCNC(=O)c2ccco2)cc1 | inconclusive: 42.2%
Cc1nc(N2CCN(C(=O)c3ccco3)CC2)c2c3c(sc2n1)CC(C)CC3 (stereo unspecified) | inconclusive: 53.3%
Cc1onc(C(=O)Nc2ccc(OC(F)(F)F)cc2)c1[N+](=O)[O-] | inconclusive: 70.2%

SMILES | activation
Cc1ccccc1NCc1ccccc1O | inactive: 1.52%
CC(C)C(=O)N(Nc1nc2ccccc2s1)C(=O)C(C)C | inactive: -2.58%
Cc1cccc(N2CCN(C(=O)Cn3nc(C)n4cccc4c3=O)CC2C)c1 (stereo unspecified) | inactive: 1.64%
CC12CC3CC(C)(C1)CC(C(=O)NC(=S)N1CCCCC1)(C3)C2 | inconclusive: 34%
O=C(O)c1c[nH]c2ccc(F)cc2c1=O | inconclusive: 40.2%
COc1ccc(-c2cc(C(F)(F)F)nc(SCCC(=O)N3CCCC3)n2)cc1 | inconclusive: 42.7%
O=C(CSc1ncn[nH]1)NCCC(c1ccccc1)c1ccccc1 | inconclusive: 35.7%
CCCC(=O)Oc1c(S(=O)(=O)c2ccc(C)cc2)c(C)nn1C(C)(C)C | inconclusive: 38.3%
Cc1ccc(CNC(=S)NC2CCC(C(C)(C)C)CC2)cc1 (stereo unspecified) | inconclusive: 60.7%
Cc1ccc(NC(=O)c2cc(=O)c3ccccc3o2)c(C)c1 | inconclusive: 43%
CCc1ccc(NC(=O)NCC2CCN(Cc3cccc(Cl)c3)CC2)cc1 | inconclusive: 36.2%
CCN(CC)S(=O)(=O)c1ccc(N2CCCC2)c(NS(=O)(=O)c2ccc(F)cc2)c1 | inactive: 18.2%
O=C(NCc1ccccc1)N1CCC(n2cnc3cc(F)ccc32)CC1 | inconclusive: 42.7%
COc1ccc(CCNC(=O)c2cc3c(F)cccc3s2)cc1OC | inconclusive: 62.4%
Cc1cccc(NC(=O)CSc2nc(-c3ccccc3)c(C#N)c(=O)[nH]2)c1C | inactive: 3.9%
CCCC(=O)Nc1ccc(C(=O)NN=C(C2CC2)C2CC2)cc1 | inconclusive: 35.5%
CSc1ccccc1C(=O)Nc1nc2ccccc2c(=O)[nH]1 | inconclusive: 32.2%
COc1ccc(CNC(=O)CNC(=O)c2sc3ccccc3c2Cl)cc1OC | inconclusive: 71.2%
Cn1cc(C(=O)Nc2ccc3c(c2)CCC3)cn1 | inconclusive: 76.2%
CN(CC(=O)Nc1cccc(F)c1)C(=O)CCCN1C(=O)c2cccc3cccc(c23)C1=O | inactive: 2.04%
Cc1cc(O)c(C(=O)Cc2csc(C)n2)c(O)c1 | inconclusive: 31%
c1ccc(-c2cc(-c3nnco3)c3ccccc3n2)nc1 | inactive: -0.705%
O=C(Oc1c(Br)cc(Br)c2cccnc12)N1CCCCC1 | inconclusive: 32.6%

Part of the list above, with tabs:
SMILES	activation
CCN(CC)S(=O)(=O)c1ccc(N2CCCC2)c(NS(=O)(=O)c2ccc(F)cc2)c1	inactive: 18.2%
COc1ccc(CNC(=O)CNC(=O)c2sc3ccccc3c2Cl)cc1OC	inconclusive: 71.2%

Next part.

SMILES | activation
Cc1c(Cl)ccc2c(C(=O)NC(C)c3ccncc3)cc(-c3ccncc3)nc12 (stereo unspecified) | inconclusive: 39.6%
CCc1ccc(CN2CCCC(C(=O)Nc3ccccc3-c3ccc(OC)cc3)C2)o1 (stereo unspecified) | inconclusive: 34.7%
COc1ccc([N+](=O)[O-])cc1NC(=O)C(C)N(C)Cc1cccc(OC)c1OC (stereo unspecified) | inconclusive: 47.3%
CCOC(=O)c1nn(-c2ccc(Cl)cc2)c2nnc(Cc3ccc(C)cc3)c(=O)n12 | inconclusive: 53.4%
CCC(C(=O)OCC(=O)Nc1ccc(OC)cc1OC)c1ccccc1 (stereo unspecified) | inactive: 15.3%
Cc1ccc(N(C(C)C(=O)N2CCN(Cc3ccccc3)CC2)S(C)(=O)=O)cc1 (stereo unspecified) | inactive: -4.02%
O=C(Nc1ccc2c(c1)oc1ccccc12)c1ccc(Br)o1 | inconclusive: 68.3%
CCOC(=O)c1ccc(NC(=O)N2CCc3ccccc32)cc1 | inconclusive: 70.4%
O=C(N/N=C\c1cc(Br)ccc1O)c1ccc(S(=O)(=O)N2CCCCC2)cc1 | inconclusive: 52.1%
Cc1ccc(NC(=S)c2ccncc2)c(C)c1 | inactive: 13.2%
CCCSc1nnc(NC(=O)c2sc3nc(-c4cccs4)ccc3c2N)s1 | inactive: 4.78%
CCn1c(COc2ccc(Cl)cc2)nnc1SCc1nc2ccccc2[nH]1 | inactive: -0.731%
Cc1cccc(OCC(=O)O/N=C(\N)Cc2ccc([N+](=O)[O-])cc2)c1 | inconclusive: 44.7%
Cc1cc(C)c2c(=O)n(CC(=O)NCCCN3CCN(c4ccccc4F)CC3)sc2n1 | inactive: 0.829%
CCc1ccccc1NC(=O)CN1CCN(C(=O)CNC(=O)c2ccc(-c3ccccc3)cc2)CC1 | inconclusive: 69%
Cc1ccc(-c2cnc3cc(C)nn3c2)cc1 | inconclusive: 59.1%
CCCCc1ccc(NC(=O)Nc2cccnc2)cc1 | active: 85%
N#C/C(=C/c1ccc(O)c(O)c1)c1nc2ccccc2[nH]1 | inactive: 28.1%
CCOC(=O)[C@H]1[C@H]2COc3ccccc3[C@@H]2N2C(=O)c3cc(Cl)ccc3NC(=O)[C@@]12C | inconclusive: 74.4%
CCOc1cc(C=O)c(Br)cc1OC1CCCC1 | inconclusive: 33.1%
CSc1ccccc1NC(=O)COc1ccc(Cl)cc1 | inconclusive: 31.7%
O=C(N/N=C/c1ccc(OC(F)F)cc1)c1ccc(Br)cc1 | inconclusive: 46%
COc1ccc(/C=C/C(=O)Nc2ccc(N3CCOCC3)cc2)cc1 | inconclusive: 54.7%

SMILES | activation
O=C(Nc1sc2c(c1-c1nc3ccccc3[nH]1)CCCC2)C1CC1 | inconclusive: 59.7%
CC1CCc2sc(C(=O)N/N=C/c3ccc([N+](=O)[O-])cc3)cc2C1 (stereo unspecified) | inactive: 0.951%
Cn1c(NCc2ccccc2)nc2c1c(=O)n(Cc1ccc(Br)cc1)c(=O)n2C | inactive: 7.27%
CC(OC(=O)c1ccccc1Nc1ccc(SC(F)F)cc1)C(N)=O (stereo unspecified) | inconclusive: 33.1%
C/C(=N\NC(=O)c1ccccc1OCc1ccc(F)cc1)c1ccccn1 | inconclusive: 32.6%
O=C1CNC(=S)N1c1nc2ccccc2s1 | inactive: -1.32%
CCCCN(Cc1cc2cc(C)ccc2[nH]c1=O)C(=O)c1ccccn1 | inactive: -1.74%
Cc1cc(C(=O)Nc2sc3c(c2C#N)CCC(C(C)(C)C)C3)no1 (stereo unspecified) | inconclusive: 53.6%
COc1ccccc1CNC(=O)N1CCN(c2ccccc2)CC1 | inconclusive: 35.6%
CCCCC1CC(CSc2ncn[nH]2)OC1=O (stereo unspecified) | inactive: -0.736%
COc1cccc(NC(=O)CN(C)C(=O)CNC(=O)c2sc3ccccc3c2Cl)c1 | inconclusive: 33.8%
CC(C)Cc1ccc(C(C)C(=O)OCC(=O)c2c[nH]c3ccccc23)cc1 (stereo unspecified) | inactive: 26.6%
Cc1oc(-c2ccc(F)cc2)nc1CN1CCCC(C(=O)N2CCOCC2)C1 (stereo unspecified) | inconclusive: 74.8%
COc1cccc(-n2cnc3sc4c(c3c2=O)CCC4)c1 | inactive: 8.89%
CCOC(=O)c1c(-c2ccccc2)csc1NC(=S)NC | inconclusive: 31.3%
CCOC(=O)c1c(C)[nH]c(C)c1C(=O)COC(=O)c1cc(OC)c(OC)cc1OC | inactive: -3.27%
Cc1nn(C)c(C)c1NC(=O)Nc1cccc(C(F)(F)F)c1 | inconclusive: 61%
CCn1nnc2cc(C(=O)NCCc3ccccc3F)ccc21 | inactive: 5.07%
CCO[C@H]1OC(C(=O)N2CCN(Cc3ccc4c(c3)OCO4)CC2)=C[C@@H](c2ccc(Br)cc2)[C@@H]1CCCO | inconclusive: 57.7%
COc1ccc(-n2c(=S)[nH]c3cc(C(=O)Nc4ccc(C)c(F)c4)ccc3c2=O)c(OC)c1 | inconclusive: 49.8%
O=[N+]([O-])c1ccc(OC/C=C2\Oc3ccc([N+](=O)[O-])cc3C2N2CCOCC2)cc1 (stereo unspecified) | inactive: 0.31%
Cc1ccccc1OCc1nc2ccc(S(=O)(=O)N3CCOCC3)cc2[nH]1 | inconclusive: 32.7%

An excerpt from above in order of length of the SMILES, high to low:
SMILES | activation
COc1cccc(NC(=O)CN(C)C(=O)CNC(=O)c2sc3ccccc3c2Cl)c1 | inconclusive: 33.8%
Cc1oc(-c2ccc(F)cc2)nc1CN1CCCC(C(=O)N2CCOCC2)C1 (stereo unspecified) | inconclusive: 74.8%
CCn1nnc2cc(C(=O)NCCc3ccccc3F)ccc21 | inactive: 5.07%
